A short description of this series: Hydrogen peroxide decomposition test in the presence of poly(sodium 4-styrenesulfonate). To be noted: GPC, in terms of polyethylene oxide; Mw(S) before test 11×10^4. On the procedure:
To a mixture of 8.41 μmol (per one metal atom) of a catalyst and 21.1 mg of poly(sodium 4-styrenesulfonate) (product commercially available from Aldrich, weight average molecular weight: about 70,000) are added 1.00 ml of a tartaric acid/sodium tartrate buffer (pH4.0) and 1.00 ml of ethylene glycol. After this catalyst mixture is stirred at 80° C. for 5 minutes, 0.20 ml of an 11.4 mol/l aqueous hydrogen peroxide solution is added, and the mixture is stirred at 80° C. for 20 minutes. A volume of oxygen generated thereupon is measured with a gas burette, and an amount of decomposed hydrogen peroxide is calculated. Thereafter, this reaction solution is diluted and filtrated, and the filtrate is measured by gel permeation chromatography (GPC), thereby, a weight average molecular weight of poly(sodium 4-styrenesulfonate) after a test is obtained. The GPC analysis condition will be shown below. Column: TSKgel α-M (13 μm, 7.8 mmφ×30 cm) manufactured by Tosoh Corporation, column temperature: 40° C., mobile phase: 50 mmol/l aqueous ammonium acetate solution: CH3CN=7:3 (v/v), flow rate: 0.6 ml/min, detector: RI, injection amount: 50 μl. A weight average molecular weight was obtained as a value in terms of polyethylene oxide. The A value is obtained by the (equation 1), and the B value is obtained by the (equation 2).
Mn-bbpr (4.90 mg, 8.41 μmol (per one metal atom)), and poly(sodium 4-sutyrenesulfonate)(21.1 mg (product commercially available from Aldrich, weight average molecular weight: about 70,000)) were weighed in a two-necked flask (25 ml), and a tartaric acid/sodium tartrate buffer (1.00 ml (prepared from 0.20 mol/l tartaric acid aqueous solution and 0.10 mol/l sodium tartrate aqueous solution, pH4.0)) and ethylene glycol (1.00 ml) as a solvent were added thereto, followed by stirring. This was used as a catalyst mixed solution.
Septum was attached to one of inlets of the two-necked flask containing this catalyst mixed solution, and the other inlet was collected to a gas burette. This flask was stirred at 80° C. for 5 minutes, a hydrogen peroxide aqueous solution (11.4 mol/l, 0.20 ml (2.28 mmol)) was added via a syringe, and a hydrogen peroxide decomposition reaction was performed at 80° C. for 20 minutes. Generated oxygen was measured with a gas burette, and decomposed hydrogen peroxide was quantitated. An amount of generated oxygen was corrected based on the following blank test. […] This filtrate was GPC-measured, and a weight average molecular weight of poly (sodium 4-sutyrenesulfonate) after a test was obtained.
Poly(sodium 4-styrenesulfonate) after the hydrogen peroxide decomposition test was GPC-analyzed. […]

Regarding `[Co+2].c1ccc2c(c1)-c1nc-2nc2[n-]c(nc3nc(nc4[n-]c(n1)c1ccccc41)-c1ccccc1-3)c1ccccc21` [Cobalt phthalocyanine, cobalt phthalocyanine], the “Mw, weight average molecular weight of poly(sodium 4-styrenesulfonate) after test” value is 9.4 × 10^4.
Consider `CC(C)(C)c1ccc2c(c1)C1=Nc3c4cc(C(C)(C)C)ccc4c4[n]3[Fe][n]3c(c5ccc(C(C)(C)C)cc5c3=NC3=NC(=N4)c4cc(C(C)(C)C)ccc43)=NC2=N1` [Fe-pcy (^tBu)], for which the “Mw, weight average molecular weight of poly(sodium 4-styrenesulfonate) after test” value is given as 7.4 × 10^4.
In the case of `[Fe+2].c1ccc2c(c1)-c1nc-2nc2[n-]c(nc3nc(nc4[n-]c(n1)c1ccccc41)-c1ccccc1-3)c1ccccc21` [Iron phthalocyanine, iron phthalocyanine] it was 6.3 × 10^4.
The figure for `[Cu+2].c1ccc2c(c1)-c1nc-2nc2[n-]c(nc3nc(nc4[n-]c(n1)c1ccccc41)-c1ccccc1-3)c1ccccc21` [Copper phthalocyanine, copper phthalocyanine] is 7.5 × 10^4.
